Measured values published in PubChem BioAssay AID2685 (National Center for Advancing Translational Sciences (NCATS), 2010).
This is one part of the list. These are further read-outs of the screen, such as a control signal, another cell line or another target. No call is given for them. Most of these compounds were active or inconclusive in the main read-out, so they are no random draw. Potencies come from curve fits of mixed quality, noted in brackets.

Experiment: qHTS Assay for Lipid Storage Modulators in Drosophila S3 Cells;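 as to cell number change: cells counted by Cell Tracker Red CMTPX staining in the red channel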
Conditions: BODIPY lipid droplet fluorescence, 18-24 h; for cell number change: measured here: cell count max response, cells fed with added oleic acid
How it was run: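 Laser-scanning cytometry quantifies lipid droplet accumulation (500–530 nm total intensity; droplet/cell object ratio) in oleic acid-fed (400 uM added) Drosophila S3 cells treated with a concentration series. 20 uM Triacsin C defined 100% inhibition.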

[1] = measured here: lipid fluorescence (Fed channel) AC50, cells fed with added oleic acid
[2] = measured here: cell number channel AC50, cells fed with added oleic acid

Structure (SMILES)	cell number change	AC50 [1]	AC50 [2]
CC(OC(=O)CN(C)S(=O)(=O)c1ccc(Cl)cc1)C(=O)Nc1ccc(N2CCOCC2)cc1 (stereo not drawn)	-7.33%	92 nM [falling, full curve, poor fit]	
O=C(CSc1ccccc1)Nc1ccc(N2CCOCC2)cc1	-3.8%		
S=C(Nc1ccccc1Cl)NC1CC2CCCC(C1)N2C1CC1 (stereo not drawn)		1160 nM [falling, partial curve, poor fit]	1160 nM [falling, single point]
COc1ccc(OC)c(N(CC(=O)NC2CCCC2)S(=O)(=O)c2ccc(OC)c(OC)c2)c1	-32.4%	1640 nM [falling, partial curve, poor fit]	7310 nM [falling, partial curve, poor fit]
COC(=O)N/N=C/c1cccc(OCCSc2ccc(Cl)cc2)c1	18.6%	5800 nM [rising, partial curve, poor fit]	
Clc1ccc(Sc2cnc3ccccc3n2)cc1	8.45%		36.6 nM [rising, full curve, poor fit]
COC(=O)/C(=N/Nc1ccccc1)N1CCCc2ccccc21	12%		
Cc1ccc(NC(=O)C2CCCN(S(=O)(=O)c3cccnc3)C2)cc1C (stereo not drawn)	44.5%	11600 nM [rising, partial curve]	461 nM [rising, full curve]
O=C(NCCN1CCOCC1)C(=O)NCC1OCCN1S(=O)(=O)c1ccc(Br)cc1 (stereo not drawn)		708 nM [rising, full curve, poor fit]	
Cc1ccc(SCC(=O)OCC(=O)N2CCN(C(=O)c3ccco3)CC2)c(C)c1	-24.4%	4110 nM [falling, single point]	
Cc1oc(-c2ccccc2)nc1C(=O)OCC(=O)NC(=O)NCC(C)C	8.54%	2060 nM [rising, partial curve]	
COC(=O)c1c(NC(=O)COC(=O)Cn2cnc3ccccc32)sc(C)c1C	8.27%	2060 nM [rising, partial curve]	
CCC(C)Sc1ccc([C@H]2N[C@@](Cc3ccccc3)(C(=O)OC)[C@H]3C(=O)N(CC)C(=O)[C@@H]23)cc1OC (stereo partly drawn)	-11%		
Cc1ccnc(NC(=S)NC(=O)/C=C/c2ccco2)c1	17.4%		
CCC(CC)NC(=O)COC(=O)c1ccc(OCc2ccc(C(C)=O)cc2OC)c(OC)c1	25.8%	2910 nM [rising, partial curve]	1840 nM [rising, partial curve]
COc1ccc(NC(=O)Cc2ccccc2)cn1	5.44%	1030 nM [rising, full curve, poor fit]	
CCOC(=O)C(CCCCCOc1ccccc1[N+](=O)[O-])C(=O)OCC	-42.7%	29100 nM [falling, single point]	29100 nM [falling, single point]
CSc1ccc(S(=O)(=O)Nc2c(C)n(C)n(-c3ccccc3)c2=O)cc1	1.64%	259 nM [rising, full curve, poor fit]	
Cc1ccc(-c2cn3cccnc3n2)cc1NC(=O)c1ccc(Br)o1		1300 nM [rising, full curve]	6510 nM [rising, partial curve, poor fit]
CC(C)NC(=S)NN=C1CCC(c2ccccc2)CC1 (stereo not drawn)	-30.3%	29100 nM [falling, partial curve, poor fit]	18400 nM [falling, single point]
COC(=O)c1cc(NC(=O)Nc2cccc(Cl)c2)ccc1Cl	-15.3%	25900 nM [falling, single point]	
O=C(CSc1nnc(CNc2cccc(C(F)(F)F)c2)n1Cc1ccco1)NCc1ccco1	22.5%	29100 nM [falling, single point]	
CCCn1nnc(NC(=O)c2sc3ccccc3c2Cl)n1	3.92%	2590 nM [rising, single point]	
O=C(NCCCCNC(=O)C1CCCC1)C1CCCC1	-24.2%	1640 nM [falling, partial curve]	
Cc1cccc(-n2nnc(C(=O)NCc3ccccn3)c2N)c1		4110 nM [rising, single point]	2590 nM [rising, partial curve]
COc1ccc(C2CC(c3cccs3)=NN2C(=O)CSc2nc3ccccc3s2)cc1 (stereo not drawn)	-48.4%	11600 nM [falling, partial curve]	11600 nM [falling, partial curve]
CS(=O)(=O)N(Cc1ccc(Cl)cc1)c1ccc(C(=O)NCCSCc2ccco2)cc1	24.8%	6510 nM [rising, single point]	

Single records, from the list above. Values in the order: cell number change | AC50 [1] | AC50 [2]
`COc1ccc(C2CC(c3cccs3)=NN2C(=O)CSc2nc3ccccc3s2)cc1` (stereo not drawn) as listed: -48.4% | 11600 nM [falling, partial curve] | 11600 nM [falling, partial curve]
`Cc1ccc(NC(=O)C2CCCN(S(=O)(=O)c3cccnc3)C2)cc1C` (stereo not drawn) as listed: 44.5% | 11600 nM [rising, partial curve] | 461 nM [rising, full curve]

(continued)

Structure (SMILES)	cell number change	AC50 [1]	AC50 [2]
CCOC(=O)c1c(C)[nH]c(C)c1C(=O)CSc1nnc(-c2cc(OC)c(OC)c(OC)c2)o1		29100 nM [rising, single point]	461 nM [rising, partial curve, poor fit]
O=C(CSc1ncnc2nc[nH]c12)c1ccccc1		6510 nM [rising, single point]	13 nM [rising, full curve, poor fit]
CCC(=O)Nc1cccc(-c2nc3ncccc3o2)c1C	-37.4%		58 nM [falling, full curve, poor fit]
CC1(C)Cc2c(c(N3CCOCC3)nc3sc(C(=O)Nc4cccc(Cl)c4)c(N)c23)CO1	4.59%	5800 nM [falling, single point]	
Cc1cc(C)cc(-n2ncc3c2CCCC3NC(=O)C2(C(N)=O)CC2)c1 (stereo not drawn)	-43.7%	3660 nM [falling, full curve]	9200 nM [falling, partial curve]
COc1ccc(NC(=O)CC23CC4CC(C2)CC(n2nnc(C)n2)(C4)C3)cc1	14%	5.8 nM [rising, full curve, poor fit]	
CC(C)n1cc(CNC(=O)C2CCC(=O)N(Cc3ccccc3F)C2)cn1 (stereo not drawn)	6.52%		
Cc1ccnc(NC(=O)c2c(-c3ccccc3Cl)noc2C)c1	8.15%	29100 nM [falling, single point]	
O=C(Cc1ccccc1)NC(C(=O)O)C(O)c1ccc([N+](=O)[O-])cc1 (stereo not drawn)	44.1%	580 nM [rising, single point]	29100 nM [rising, single point]
O=C(Nc1ccc(Cl)cc1Cl)c1ccc(-c2ccccc2)cc1	14.8%	11600 nM [rising, partial curve, poor fit]	
NS(=O)(=O)c1ccc(CCNc2ncnc3sccc23)cc1	-53.2%	1840 nM [falling, full curve]	7310 nM [falling, partial curve]
COc1ccccc1N(C)S(=O)(=O)c1ccc(C(=O)OC(C)C(=O)NCc2ccc3c(c2)OCO3)cc1 (stereo not drawn)	20.8%		184 nM [rising, full curve, poor fit]
COc1ccc(OC)c(NC(=O)c2cc(S(=O)(=O)NCc3ccco3)ccc2F)c1	10.6%	5.17 nM [rising, full curve, poor fit]	
CCC1C(C#N)=C(SC)NC2=C1C(=O)CC(C)(C)C2 (stereo not drawn)	0.822%	130 nM [falling, full curve, poor fit]	
O=C(Nc1ccc(-c2nc3ccc(NC(=O)c4cccs4)cc3[nH]2)cc1)c1cccs1	-48.4%	2310 nM [rising, partial curve]	29100 nM [falling, single point]
COc1cccc(NC(=O)COc2ncnc3sc(C)c(C)c23)c1			1300 nM [rising, partial curve]
CN(C(=O)c1ccc(NC(=O)Cc2cccc(NC(=O)C3CCCN(C(=O)C4CCC4)C3)c2)cc1)C1CCCC1 (stereo not drawn)	-30.2%	580 nM [falling, single point]	10.3 nM [falling, full curve, poor fit]
CCN(CC)C(=O)COc1cc(C)cc2oc(=O)cc(-c3ccccc3)c12	-6.79%		
Cc1nc2ccccc2c(=O)n1-c1cccc(NS(=O)(=O)c2ccccc2)c1		14600 nM [falling, partial curve]	
CC(CC1C(C#N)=C(N)OC2=C1C(=O)CCC2)c1ccccc1 (stereo not drawn)	90.2%		2590 nM [rising, full curve]
CC(C)c1nnc(NC(=O)c2sc3ccccc3c2Cl)s1	1.92%		
O=C(CC1C(=O)NCCN1C(=S)Nc1ccccc1)Nc1ccc(F)cc1 (stereo not drawn)	-13.4%	36.6 nM [falling, full curve, poor fit]	
Cn1c(SCc2ccc(F)cc2Cl)nc2ccccc2c1=O	-33.6%	32600 nM [falling, partial curve, poor fit]	29100 nM [falling, single point]
COc1ccc(S(=O)(=O)N2CCN(c3ccccn3)CC2)cc1[N+](=O)[O-]	22.8%	411 nM [rising, full curve, poor fit]	
Cc1cc([N+](=O)[O-])nn1CC(=O)NNC(=S)Nc1ccc([N+](=O)[O-])cc1	-16.3%		
COc1cccc2[nH]c3c(=O)n(CCCN4CCOCC4)cnc3c12	25.3%		
COc1ccc(N2CCN(C(=O)CN(Cc3ccccc3)S(C)(=O)=O)CC2)cc1	111%		9200 nM [rising, partial curve]
